This is an account of results in US9605025B2, “Antagonist peptide of the bond between CD47 and a protein belonging to the thrombospondin family” (Universite de Reims Champagne Ardenne, priority 2011, dated 2017).

By UniProt entry, the sequences of proteins in these tests, tags left out. Residues count along the entry.
UniProt Q08722, residues 19-323: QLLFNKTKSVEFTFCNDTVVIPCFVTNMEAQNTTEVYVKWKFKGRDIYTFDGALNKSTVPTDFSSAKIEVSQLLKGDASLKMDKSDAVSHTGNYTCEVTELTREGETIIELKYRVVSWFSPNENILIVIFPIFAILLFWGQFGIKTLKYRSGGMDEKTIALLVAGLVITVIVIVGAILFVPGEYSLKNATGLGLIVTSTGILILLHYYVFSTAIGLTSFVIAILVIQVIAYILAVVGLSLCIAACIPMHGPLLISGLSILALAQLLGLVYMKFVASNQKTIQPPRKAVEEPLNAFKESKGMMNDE

The target in the assay is CD47 receptor (UniProt Q08722). Nature of the assay: inferred by the filing from FTC-133 viability assay with 4N1 and CD47-blocking antibody B6H12.

Results are given in words; binding and its absence hold for the method and conditions named. Some results given as binding are weak or reduced against the parent protein; the word gives no strength.

For KRFYVVMWK [peptide 4N1 (…)], the binding entry is recorded as “binds”.
